Results published in PubChem BioAssay AID493014 (National Center for Advancing Translational Sciences (NCATS), 2011).
The list shows a part of the results. Further columns of the screen follow, without active or inactive calls. The list favours compounds with an active or inconclusive main result. Words in brackets tell the shape of the fitted curve; partial curves, single points and poor fits give uncertain potencies.

Experiment: qHTS Assay to Find Inhibitors of Chronic Active B-Cell Receptor Signaling
Conditions: ABC-DLBCL IkBa-CBG/CBR reporter, luminescence ratio (green luciferase fused to IkBa over red control in TMD8 lymphoma cells), 4 h
Procedure, shortened: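 Compounds up to 46 uM were incubated four hours with TMD8 cells whose green CBG68 luciferase is fused to IkappaBalpha; red CBR luminescence normalised the signal, and concentration-effect curves were fitted to fusion, red and ratio data.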

[1] = measured here: CBR red luminescence, cell number

SMILES	AC50 [1]	AC50 (measured here: IkBa-CBG green luminescence)
CCOC(=O)c1ccc(NC(=O)CN(Cc2ccc(Cl)cc2)S(C)(=O)=O)cc1	6.51 µM [rising, single point]	–
COCC(C)n1c(SCc2nc(N)nc(Nc3ccccc3C)n2)nc2ccccc2c1=O (configuration not stated)	13 µM [rising, partial curve, poor fit]	–
CCCc1[nH]nc2c1C(c1ccc(OC)c(CSC3=NCCS3)c1)C(C#N)=C(N)O2 (configuration not stated)	25.1 µM [falling, single point]	–
O=C(C(c1ccccc1)c1ccccc1)N(Cc1ccco1)C1CCS(=O)(=O)C1 (configuration not stated)	0.112 µM [rising, full curve, poor fit]	–
CCc1cc(=O)oc2cc(OCC(=O)NCCN3CCOCC3)c(Cl)cc12	12.6 µM [rising, single point]	–
Cn1c(CCc2ccccc2)nnc1SCC(=O)N1CCCC1	4.11 µM [rising, single point]	–
CCOC(=O)c1sc(NC(=O)CCN2CCCCCC2)c(C(=O)OCC)c1C	10 µM [falling, single point]	–
Oc1ccc2ccccc2c1C=NCc1cn2ccsc2n1	35.5 µM [falling, single point]	–
Cc1ccc(C(=O)Cc2cc3ccccc3oc2=O)c(C)c1	35.5 µM [rising, single point]	–
Cc1noc(/C=C/N(C)C)c1S(=O)(=O)N(C)Cc1ccc(F)cc1	35.5 µM [falling, single point]	–
COc1cc(/C=N/Nc2ccc(Cl)nn2)cc(OC)c1O	0.398 µM [rising, full curve, poor fit]	–
Cc1ccccc1CCN(C(=O)c1csnn1)C(C(=O)NC1CCCC1)c1ccncc1 (configuration not stated)	10 µM [falling, partial curve, poor fit]	–
O=C(Nc1cc2c3c(c1)CC(=O)N3CCC2)c1ccccc1Br	13 µM [falling, partial curve, poor fit]	–
O=[N+]([O-])c1cc2c(cc1CN1CCN(c3ccccc3F)CC1)OCO2	17.8 µM [rising, partial curve, poor fit]	–
O=C(COc1ccc(Cl)cc1)Nc1cccc(-c2ccc(N3CCOCC3)nn2)c1	13 µM [falling, partial curve, poor fit]	–
Cc1nn(CC(O)COc2ccc3c(c2)CCC3)c(C)c1Br (configuration not stated)	35.5 µM [falling, single point]	–

SMILES	AC50 [1]	AC50 (measured here: IkBa-CBG green luminescence)
Cc1ccc(NC(=O)Cn2c(=O)n(CCCCC(=O)NCc3ccco3)c(=O)c3ccccc32)cc1	0.82 µM [falling, full curve, poor fit]	–
O=C(Nc1cccc([N+](=O)[O-])c1)c1ccncc1	6.51 µM [rising, partial curve, poor fit]	–
Cc1ccc(S(=O)(=O)CCC(=O)OCC(=O)NC2CCS(=O)(=O)C2)cc1 (configuration not stated)	29.1 µM [rising, single point]	–
COc1cc([N+](=O)[O-])ccc1NC(=O)COC(=O)CCOc1ccc(C)cc1	6.51 µM [falling, partial curve]	5.17 µM [rising, partial curve, poor fit]
COc1ccc(CNC(=O)[C@@H](NC(=O)C2CCN(C(=O)[C@@H]3CCCN3C(=O)OC(C)(C)C)CC2)C(C)C)cc1	35.5 µM [rising, single point]	–
O=C(c1cc(-c2ccc(Cl)cc2)on1)N1CCCCCC1	5.62 µM [falling, single point]	–
COc1ccc(C(CNC(=O)c2cccc(S(=O)(=O)Nc3ccccc3OC)c2)N2CCCC2)cc1 (configuration not stated)	29.1 µM [falling, partial curve, poor fit]	–
CCCNC(=O)CCc1cc(C(C)(C)C)c(O)c(C(C)(C)C)c1	3.66 µM [rising, partial curve, poor fit]	–
C/C(=N\NC(=O)c1ccccc1Br)c1ccc(N2CCOCC2)cc1	7.08 µM [falling, partial curve, poor fit]	–
COc1cccc(-c2nc3ccc([N+](=O)[O-])cc3o2)c1	3.98 µM [rising, partial curve, poor fit]	–
CCOC(=O)c1ccc(NC(=O)CSc2nnc(-c3ccncc3)n2-c2ccccc2)cc1	10 µM [rising, partial curve]	–
COc1ccc(NC(=O)Nc2cc(C)cc(C)c2)cn1	0.0891 µM [rising, full curve, poor fit]	–
O=C(NCc1ccccc1)C(Cc1ccccc1)N1C(=O)C2C3CCC(C3)C2C1=O (configuration not stated)	11.2 µM [falling, partial curve]	–
CCn1ncc(CN2CCC(Oc3cc(C(=O)NC4CC4)ccc3OC)CC2)c1C	35.5 µM [rising, partial curve, poor fit]	–
COC(=O)c1c(-c2cccs2)csc1NC(=O)c1cccnc1	7.94 µM [rising, partial curve, poor fit]	–

2 entries from above, bar-delimited:
SMILES | AC50 [1] | AC50 (measured here: IkBa-CBG green luminescence)
Cc1ccc(S(=O)(=O)CCC(=O)OCC(=O)NC2CCS(=O)(=O)C2)cc1 (configuration not stated) | 29.1 µM [rising, single point] | –
COc1cc([N+](=O)[O-])ccc1NC(=O)COC(=O)CCOc1ccc(C)cc1 | 6.51 µM [falling, partial curve] | 5.17 µM [rising, partial curve, poor fit]
